Where a name gives a salt, the structure may show the parent alone. The source gives many values for each of these; only a part stands here.
Experiment: Solubility in lipid solvents and solvent mixtures in ambient conditions
Assay type: physicochemical
Conditions: in Miglyol 810, ambient conditions
Description: Solubility of ABT-263 parent (free base, crystalline Form I) and ABT-263 bis-HCl salt was tested in a variety of lipid solvents and solvent mixtures in ambient conditions. Trademarked solvents in this study, unless identified hereinabove, are as follows (substantially equivalent products from other manufacturers can be substituted if available): • Miglyol 810™ of Sasol: caprylic/capric triglycerides; • Capmul MCM™ of Abitec: glyceryl caprylate/caprate; • Captex 300™ of Abitec: caprylic/capric triglycerides; • Labrafil M 2125 CS™ of Gattefossé: polyoxyethylene glyceryl linoleate; • Tween 20™ of Uniqema: polysorbate 20; • Labrasol™ of Gattefossé: polyoxyethylene glyceryl caprylate/caprate; • Cremophor RH40™: polyoxyethyene (40) hydrogenated castor oil. “PE-91” is Phosal 53 MCT™+ethanol, 9:1 by volume. “LOT-343” is Labrafil M 1944 CS™+oleic acid+Tween 80™, 30:40:30 by weight.
In some cases, indicated in Table 4 by an asterisk (*), solubility was initially high but precipitation occurred upon standing.

Solubility (listed as bis-HCl salt)	Solubility (listed as Parent (Form I))	SMILES
<84 mg/g		CC1(C)CCC(c2ccc(Cl)cc2)=C(CN2CCN(c3ccc(C(=O)NS(=O)(=O)c4ccc(N[C@H](CCN5CCOCC5)CSc5ccccc5)c(S(=O)(=O)C(F)(F)F)c4)cc3)CC2)C1 [ABT-263 bis-HCl]
	<76 mg/g	CC1(C)CCC(c2ccc(Cl)cc2)=C(CN2CCN(c3ccc(C(=O)NS(=O)(=O)c4ccc(N[C@H](CCN5CCOCC5)CSc5ccccc5)c(S(=O)(=O)C(F)(F)F)c4)cc3)CC2)C1 [ABT-263]
